This is an account of results in PubChem BioAssay AID2685 (National Center for Advancing Translational Sciences (NCATS), 2010).

A short description of the experiment: qHTS Assay for Lipid Storage Modulators in Drosophila S3 Cells.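 As to cell number change: cells counted by Cell Tracker Red CMTPX staining in the red channel.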 As to conditions: BODIPY lipid droplet fluorescence, 18-24 h; for cell number change: measured here: cell count max response, cells fed with added oleic acid. In a few lines:
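Drosophila S3 cells got compounds at several concentrations plus oleic acid (400 uM solution). Laser-scanning cytometry with 488 nm excitation read lipid droplets at 500-530 nm and cells at 575-640 nm. Percent activity was relative to 20 uM Triacsin C.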
(In general: qHTS replaces the single test concentration by a dilution series.)

Setting [1] is: measured here: cell number channel AC50, cells fed with added oleic acid.
Where [2] appears, read: measured here: lipid fluorescence (Fed channel) AC50, cells fed with added oleic acid.

The list shows a part of the results. These are further read-outs of the screen, such as a control signal, another cell line or another target. No call is given for them. Most of these compounds were active or inconclusive in the main read-out, so they are no random draw. Potencies come from curve fits of mixed quality, noted in brackets.

The term AC50 denotes the concentration at which the activity in the assay is half-maximal. Read a low AC50 as activity at low concentration.

As for `CCOC(=O)c1c(C)oc2ccc(O)c(CN(C)C)c12`, the cell number change was -205%. Further, the AC50 under setting [1] is 20.6 µM [falling, partial curve]. Under setting [2], the AC50 was 20.6 µM [falling, partial curve].
As for `COc1ccc(OC)c2[nH]c(=O)c(CCNC(=O)CC(C)C)cc12`, the AC50 by setting is: under setting [1], 3.26 µM [rising, partial curve]; under setting [2], 2.91 µM [rising, partial curve].
As to `Cc1nc2nc[nH]n2c(=O)c1NS(=O)(=O)c1ccc([N+](=O)[O-])cc1`, the cell number change was -19.5%. For the same compound, the AC50 under setting [2] was 29.1 µM [falling, single point].
Turning to `Nc1nc2ccccc2n1C(=O)c1ccc(F)cc1`, the cell number change amounted to 18.5%. Under setting [2], the AC50 was 29.1 µM [rising, single point].
For `N#C/C(=C\c1ccc2c(c1)OCO2)C(=O)NCc1ccco1`, the AC50 reads like this: under setting [1], 6.51 µM [rising, single point]; under setting [2], 4.11 µM [rising, single point].
Consider `c1ccc(-c2cc(N3CCOCC3)nc(-c3ccccc3)n2)cc1`, for which the cell number change is -14.1%. Under setting [2], the half-maximal activity concentration (AC50) is 1.64 µM [rising, full curve].
Consider `Cc1ccc(S(C)(=O)=O)cc1C(=O)OCC(=O)N(Cc1ccccc1)Cc1ccccc1`, for which the cell number change was -23%. The AC50 under setting [2] is 0.146 µM [rising, full curve, poor fit].
With `Clc1ccccc1-c1nnc2sc(-c3ccco3)nn12`, the cell number change is -20.2%.
Consider `COc1ccccc1-c1nc2ccccc2c(=O)n1NC(=O)c1cccs1`, for which the cell number change was -53.9%. For the same compound, the AC50 under setting [1] is 29.1 µM [falling, single point]. Moreover, under setting [2], the AC50 was 32.6 µM [falling, single point].
Regarding `C=CCN(CC=C)C(=O)c1ccccc1NC(=O)c1ccccc1C`, the cell number change is -21.2%.
Take `CCOc1ccc(Nc2ccc([N+](=O)[O-])c3nonc23)cc1`: the cell number change is -40.6%. Besides, the AC50 under setting [1] is 29.1 µM [falling, single point].
As to `COc1cc(NC(=O)c2cnn3c(C)cc(C)nc23)c(OC)cc1Cl`, the cell number change worked out at 90.2%. Besides, under setting [1], the AC50 is 5.17 µM [rising, full curve]. Further, the half-maximal activity concentration (AC50) under setting [2] is 6.51 µM [rising, single point].
For the compound `C=C(C)c1cccc(C(C)(C)NC(=O)NCCCn2ccnc2)c1`, the cell number change is 6.08%. In addition, the AC50 under setting [2] was 0.291 µM [rising, single point].
Take `COc1cc(C(=O)NCCC2=CCCCC2)ccc1OCc1c(C)noc1C`: the cell number change was 1.13%.
Consider `Cc1ccc(NC(=O)Cn2c([N+](=O)[O-])cnc2C)cc1Cl`, for which the cell number change stood at 143%. Besides, the concentration at half-maximal activity (AC50) under setting [1] is 25.9 µM [rising, partial curve, poor fit].
As to `COc1cc(OC)c(NC(=S)Nc2cc(Cl)cc(Cl)c2)cc1Cl`, the cell number change was -36.2%. Under setting [1], the AC50 was 29.1 µM [falling, single point]. Also, the AC50 under setting [2] was 1.84 µM [rising, partial curve, poor fit].
Turning to `O=S(=O)(N1CCCCCC1)N1CCNCC1`, the cell number change was 10.3%. In addition, the AC50 under setting [2] was 10.3 µM [rising, partial curve].
Take `Cn1c(O)c(N=NC(=O)Cn2c(C(F)(F)F)nc3ccccc32)c2ccccc21`: the cell number change came out at 0.294%. Also, the AC50 under setting [2] was 20.6 µM [rising, single point].
As for `Cc1ccc(CCC(=O)Nc2ccccc2F)s1`, the cell number change was 31.4%. In addition, under setting [1], the concentration at half-maximal activity (AC50) was 14.6 µM [rising, partial curve, poor fit].
As to `CCCSc1ccc([C@H]2N[C@@](CC(C)C)(C(=O)OC)[C@H]3C(=O)N(C)C(=O)[C@@H]23)cc1`, the cell number change was -38.7%. Moreover, the half-maximal activity concentration (AC50) under setting [1] was 20.6 µM [falling, single point].
Take `Cc1cccc(N2N=C(C(=O)Nc3nc(C)cs3)CCC2=O)c1`: the cell number change was -5.2%. Further, under setting [2], the AC50 is 0.103 µM [rising, single point].
For `COc1ccc2[nH]cc(CCNC(=O)c3ccco3)c2c1`, the cell number change was -31%. For the same compound, under setting [1], the AC50 was 25.9 µM [falling, single point]. Under setting [2], the AC50 was 0.0326 µM [rising, full curve, poor fit].
For `COc1cc(C(=S)N2CCN(C(c3ccccc3)c3ccccc3)CC2)cc(OC)c1O`, the cell number change is -10.7%. Further, under setting [2], the AC50 was 16.4 µM [falling, single point].
Regarding `O=C(c1cc(-c2ccccc2)on1)N1CCCCCC1`, the cell number change came to 16.8%. Also, under setting [1], the concentration at half-maximal activity (AC50) was 2.31 µM [rising, partial curve].
In the case of `COc1ccc(Cc2nc3ccc(C(=O)N4CCCC4)cc3o2)cc1OC`, the cell number change is -13.8%. Besides, the AC50 under setting [2] is 6.51 µM [rising, partial curve, poor fit].
For the compound `Cc1cc2c(sc3ccccc32)c(C)n1`, the cell number change worked out at 26.5%. For the same compound, under setting [2], the half-maximal activity concentration (AC50) is 0.0092 µM [falling, full curve, poor fit].
Turning to `O=S1(=O)N=C(Nc2ccc(O)c(CN3CCCCC3)c2)c2ccccc21`, the cell number change was -16.5%. Besides, the AC50 under setting [2] is 0.366 µM [rising, full curve, poor fit].
Regarding `Cc1noc(C)c1CSCC(=O)N(CCC(C)C)c1c(N)n(Cc2ccccc2)c(=O)[nH]c1=O`, the AC50 under setting [2] was 18.4 µM [rising, single point].
Turning to `O=C(Nc1ccccc1)Nc1ccc(Cl)c([N+](=O)[O-])c1`, the cell number change was -48%. Moreover, the AC50 under setting [1] was 32.6 µM [falling, single point]. Further, under setting [2], the AC50 is 0.13 µM [falling, full curve, poor fit].
In the case of `CCN1CCCC1CNC(=O)C(=O)NCCc1ccc(OC)c(OC)c1` (centres undefined), the cell number change was determined as 1.02%. In addition, the AC50 under setting [2] is 1.84 µM [falling, partial curve, poor fit].
Take `O=C(NC1CCCCCC1)C1CCCN1S(=O)(=O)c1cccc2cccnc12` (centres undefined): the cell number change was found to be 4.74%. Moreover, the AC50 under setting [2] is 0.00461 µM [rising, full curve, poor fit].
For the compound `CC(=O)Nc1ccc(NC(=O)COC(=O)c2ccc(Cl)nc2)cc1`, the cell number change amounted to 3%.
Consider `CCOC(=O)c1[nH]c(C)c(C(=O)Nc2ccc(C)c(Cl)c2)c1C`, for which the cell number change is -26.7%. Moreover, the AC50 under setting [2] was 11.6 µM [falling, single point].
Turning to `COc1ccc(/C=C(\NC(=O)c2cccs2)C(=O)Nc2cccc3ccccc23)cc1OC`, the cell number change is -67.9%. The concentration at half-maximal activity (AC50) under setting [1] is 2.06 µM [falling, full curve]. For the same compound, under setting [2], the AC50 is 3.26 µM [falling, full curve].
`Cc1ccccc1N1Cc2ccccc2C1`: the cell number change is -41.5%. Moreover, under setting [1], the AC50 was 14.6 µM [falling, partial curve]. The AC50 under setting [2] is 14.6 µM [falling, partial curve].
Turning to `COc1cccc(NC(=O)N2CCCc3ccccc32)c1`, the cell number change is 36.9%. For the same compound, the concentration at half-maximal activity (AC50) under setting [1] is 29.1 µM [rising, single point]. Moreover, under setting [2], the AC50 is 29.1 µM [rising, single point].
Take `Cc1cc(C)cc(OCC(=O)Nc2ccc3c4c(cccc24)CC3)c1`: the cell number change is -34.6%. Also, the concentration at half-maximal activity (AC50) under setting [1] is 29.1 µM [falling, single point]. In addition, the half-maximal activity concentration (AC50) under setting [2] was 7.31 µM [falling, partial curve].
